Data as given in PubChem BioAssay AID2685 (National Center for Advancing Translational Sciences (NCATS), 2010).
About 2,100 (0.66%) of roughly 320,000 compounds were called active. Inconclusive means that the source gave no clear call. Such entries were picked first, then a sample of the others. Calls come from the whole dose curve; as a rule, active = well fitted inhibition curve with a large enough effect in the signal ratio, with a control signal flat (not every such curve was filed as active); inconclusive = small, poorly fitted or top-dose-only effect, or effect the other way, or a change in a side signal; inactive = flat fitted curve, though single readings scatter; the % refers to the signal ratio. Potencies of inconclusive entries are doubtful fits and often do not repeat.

Assay: qHTS Assay for Lipid Storage Modulators in Drosophila S3 Cells
Details: BODIPY lipid droplet fluorescence, 18-24 h, cells fed with added oleic acid; lipid storage change, negative = inhibition: at 46.1 µM (top of the series) unless noted
Outline: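 Laser-scanning cytometry quantifies lipid droplet accumulation (500–530 nm total intensity; droplet/cell object ratio) in oleic acid-fed (400 uM added) Drosophila S3 cells treated with a concentration series. 20 uM Triacsin C defined 100% inhibition.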
% is set by controls: 0 for no effect and ±100 for the full control effect; potency is the fitted concentration of half-maximal effect.

Row | SMILES | Potency | lipid storage change, negative = inhibition | outcome
1 | Cc1cc2ncn(CS(C)(=O)=O)c2cc1C | inconclusive: 4.11 µM [falling, full curve] | – | –
2 | COc1ccc(C(=O)N2c3ccccc3CC2C)cc1OC (stereo not given) | – | inconclusive: 25.9% | –
3 | O=c1[nH]c2ccccc2nc1C(F)(F)F | – | inactive: 8.88% | –
4 | COc1ccc(NS(=O)(=O)c2ccc(-c3coc(C)n3)cc2)c(OC)c1 | – | inconclusive: -74.5% | –
5 | O=C(Cn1ccc2ccccc2c1=O)NCCC(=O)Nc1cccc(Cl)c1 | – | inconclusive: -48.6% | –
6 | CN1CCN(c2ccc(NC(=O)c3ccc(-c4ccc(Cl)cc4)o3)cc2)CC1 | – | inconclusive: -14.7% | –
7 | O=C(Nc1nonc1-c1ccc(F)cc1)c1ccco1 | inconclusive: 0.82 µM [falling, full curve, poor fit] | – | –
8 | CCc1c(C)c(C#N)c2nc3ccccc3n2c1N(C)C | inconclusive: 6.51 µM [activator, single point] | – | –
9 | COc1ccc(NC(=O)c2cc(-c3cc(OC)c(OC)c(OC)c3)nc3ccccc23)cc1OC | – | inconclusive: -29.8% | –
10 | CC(C)(C)c1ccc(C(=O)NNC(=O)c2cccc(-n3cnnn3)c2)cc1 | – | inconclusive: -19.6% | –
11 | O=C(COC(=O)c1ccccn1)NCc1ccccc1Cl | – | inactive: -5.2% | –
12 | Cc1onc(-c2ccccc2)c1C(=O)NC(=S)NNC(=O)c1ccc(O)cc1O | – | inconclusive: -13.4% | –
13 | CCCCc1ccc(NC(=O)CN2C(=O)NC(Cc3ccccc3)C2=O)cc1 (stereo not given) | – | inconclusive | –
14 | CC1CN(Cc2ccccc2)c2ccccc2NC1=S (stereo not given) | inconclusive: 29.1 µM [falling, single point] | – | –
15 | CC1(C)CC(=O)C2=C(C1)OC(N)=C(C#N)C2c1ccccc1 (stereo not given) | – | inconclusive: -78.9% | –
16 | O=C(Cn1c(=O)n(Cc2ccco2)c(=O)c2c3c(sc21)CCCCC3)Nc1ccccc1 | inconclusive: 23.1 µM [falling, partial curve, poor fit] | – | –
17 | Cc1ccc2oc(=O)c(/C=C(\O)c3sc(C)nc3C)nc2c1 | – | inconclusive: -19.6% | –
18 | Brc1ccc(CSc2ncn[nH]2)cc1 | inconclusive: 0.0046 µM [falling, full curve, poor fit] | – | –
19 | CCOC(=O)N1CCC(NC(=O)c2cc(C(=O)Nc3ccc(S(=O)(=O)N4CCOCC4)cc3)ccc2CO)CC1 | – | inconclusive: -6.67% | –
20 | Nc1nonc1-n1nnc(C(=O)N/N=C/c2ccccc2)c1CSc1ccccc1 | – | inconclusive: 34.8% | –
21 | COc1ccc(NC(=O)C(CC(C)C)NC(=O)C2CCC(C)CC2)cc1 (stereo not given) | inconclusive: 0.731 µM [activator, single point] | – | –
22 | O=C(CCn1ccc2cc(S(=O)(=O)N3CCCC3)ccc21)NCCc1ccccc1 | inconclusive: 0.0052 µM [falling, full curve, poor fit] | – | –
23 | COc1ccc(OC)c(NC(=O)CCN2CCN(c3ccccc3OC)CC2)c1 | inconclusive: 5.8 µM [falling, partial curve, poor fit] | – | –
24 | O=C1CC(Cc2ccc(Br)cc2)C(=O)N1c1ccccc1 (stereo not given) | – | inconclusive: -28.4% | –
25 | CC(Oc1ccccc1)C(=O)N=C1SC2CS(=O)(=O)CC2N1Cc1ccc(F)cc1 (stereo not given) | inconclusive: 14.6 µM [activator, partial curve] | – | –

Row | SMILES | Potency | lipid storage change, negative = inhibition | outcome
26 | Cc1ccc(CNC(=O)CCCn2nc(C)n3ccnc3c2=O)cc1 | – | inconclusive: 33.5% | –
27 | Cc1cc(C)n(CC(=O)NC2CCCCC2C)c(=O)c1C#N (stereo not given) | – | inconclusive: -3.39% | –
28 | COc1ccc(/C=N/NC(=O)c2ccoc2C)cc1COc1ccc(Cl)cc1 | inconclusive: 1.3 µM [activator, full curve] | – | –
29 | Cn1c(=O)c2cc(S(=O)(=O)N3CCN(c4cccc(C(F)(F)F)c4)CC3)ccc2n(C)c1=O | inconclusive: 10.3 µM [activator, partial curve, poor fit] | – | –
30 | Cc1oc(-c2ccccc2F)nc1CN1CCC(C(=O)NCCC2=CCCCC2)CC1 | – | inconclusive: -29.2% | –
31 | COc1ccc(-c2noc(C3CCCN(C(=O)CCc4ccccc4)C3)n2)cc1 (stereo not given) | – | inconclusive: 32.6% | –
32 | Cc1ccc(CC(=O)Nc2nc3c(s2)CCCC3)cc1 | inconclusive: 2.91 µM [falling, partial curve] | – | –
33 | CCOc1ncccc1C(=O)N1CCN(S(=O)(=O)c2ccc(Br)cc2Cl)CC1 | – | inconclusive: -16.5% | –
34 | O=C(O)Cn1c(=O)c2c3c(sc2n(Cc2ccccc2)c1=O)CCCC3 | – | inconclusive: 19.2% | –
35 | CCCCCOCC1CC(C/C(C)=N/Nc2nc(-c3ccccc3)cs2)C(=O)O1 (stereo not given) | – | inconclusive: 37.1% | –
36 | Cc1cc(C)n(-c2ccc(C(=O)Nc3cccc(S(=O)(=O)N4CCCC4)c3)cc2)n1 | – | inconclusive: -28.1% | –
37 | Cc1ccc(S(=O)(=O)N(CC(=O)NCc2cccnc2)c2ccc(F)cc2)cc1 | inconclusive: 0.461 µM [rising, partial curve, poor fit] | – | –
38 | c1cncc(CNc2ncnc3ccc(-c4ccc5c(c4)OCO5)cc23)c1 | – | inconclusive: 35.9% | –
39 | COc1ccccc1/C=C/C1(C(=O)NC2CCCC2)CC(=O)N1c1ccc(C)cc1 (stereo not given) | inconclusive: 16.4 µM [cytotoxic, single point] | – | –
40 | C/C(=N/NC(=O)c1cc(-c2ccc(Br)s2)[nH]n1)c1ccco1 | – | inconclusive: -27.8% | –
41 | O=C(NCCSc1ncc(-c2ccc(F)cc2)[nH]1)c1ccco1 | – | inconclusive | –
42 | COc1ccc2oc(C(F)(F)C(F)F)cc(=O)c2c1 | – | inconclusive: -0.867% | –
43 | CCn1c(CCNC(=O)c2cccs2)nnc1SCC(=O)Nc1nc(-c2ccccc2)cs1 | inconclusive: 20.6 µM [cytotoxic, partial curve] | – | –
44 | COc1ccc(N=N/C(=C\O)C(=O)c2ccco2)cc1 | – | inconclusive: -7.14% | –
45 | O=C(Nc1ccccc1C(=O)N/N=C/c1ccco1)c1ccc(Cl)cc1 | – | inconclusive: 5.85% | –
46 | Cc1cc(C)n(-c2ccc(C(=O)OCC(=O)NC(c3ccccc3)c3ccccc3)cc2)n1 | – | inconclusive: 12.9% | –
47 | COc1cccc(N(C(=O)c2snc(C(N)=O)c2N)C(C(=O)NCC2CCCO2)c2cccs2)c1 (stereo not given) | – | inconclusive: 0.784% | –
48 | CC(Oc1ccccc1)C(=O)NC1=NCCS1 (stereo not given) | – | inconclusive: 14.1% | –
49 | CCOC(=O)c1cccc(NC(=O)C2CCCN(S(=O)(=O)c3cnc[nH]3)C2)c1 (stereo not given) | – | inconclusive: -2.83% | –
50 | O=C1OCC(c2ccccc2)=C1c1ccc(S(=O)(=O)N2CCOCC2)s1 | – | inconclusive: -11.6% | –

5 entries from above, ordered by heavy-atom count, low to high.
Row | SMILES | Potency | lipid storage change, negative = inhibition | outcome
48 | CC(Oc1ccccc1)C(=O)NC1=NCCS1 (stereo not given) | – | inconclusive: 14.1% | –
26 | Cc1ccc(CNC(=O)CCCn2nc(C)n3ccnc3c2=O)cc1 | – | inconclusive: 33.5% | –
45 | O=C(Nc1ccccc1C(=O)N/N=C/c1ccco1)c1ccc(Cl)cc1 | – | inconclusive: 5.85% | –
37 | Cc1ccc(S(=O)(=O)N(CC(=O)NCc2cccnc2)c2ccc(F)cc2)cc1 | inconclusive: 0.461 µM [rising, partial curve, poor fit] | – | –
47 | COc1cccc(N(C(=O)c2snc(C(N)=O)c2N)C(C(=O)NCC2CCCO2)c2cccs2)c1 (stereo not given) | – | inconclusive: 0.784% | –

Additional compounds:

Row | SMILES | Potency | lipid storage change, negative = inhibition | outcome
51 | CCCCCc1cc(=O)oc2c(C(CCN3CCCC(C)C3)c3ccc(OC)cc3)c(OC)cc(OC)c12 (stereo not given) | inconclusive: 29.1 µM [falling, single point] | – | –
52 | COc1ccc(C)cc1NC(=O)c1ccccc1NS(=O)(=O)c1cccc2cccnc12 | – | inactive: 1.11% | –
53 | CCOC(=O)C1CCN(C(=O)c2cn(-c3ccccc3)nc2-c2cccnc2)CC1 | – | inconclusive: 30.8% | –
54 | Cc1ccc(SCC(=O)Nc2cc(C)on2)cc1 | – | inconclusive: 6.76% | –
55 | CCOC(=O)c1ccc(NC(=O)C2CCCN(S(=O)(=O)c3cnc[nH]3)C2)cc1 (stereo not given) | – | inconclusive: -49% | –
56 | Cc1cc(=O)c2cc(C(=O)c3ccccc3)ccc2[nH]1 | – | inconclusive: -19.7% | –
57 | COc1cc(OC)cc(-c2c(-c3cccs3)c3cc(-c4ccc(N(C)C)nc4)ccc3n2C)c1 | – | – | inactive [at 46.1 µM]
58 | O=C(CCl)Nc1ccc(S(=O)(=O)Nc2nccs2)cc1 | inconclusive: 6.51 µM [activator, single point] | – | –
59 | CC(=O)c1cc(NC(=O)c2cccc(C(F)(F)F)c2)c(=O)oc1/C=C/N(C)C | – | inconclusive: -5.18% | –
60 | CCOC(=O)c1cccc(NC(=O)c2ccc3c(c2)C(=O)N(CC2CCCO2)C3=O)c1 (stereo not given) | – | inconclusive: -100% | –
61 | COc1ccc(C(=O)Nc2cnccn2)cc1[N+](=O)[O-] | – | inconclusive: -8.83% | –
62 | Cc1cc(C)c(C#N)c(SCc2ccc3c(c2)OCO3)n1 | inconclusive: 2.31 µM [activator, full curve] | – | –
63 | O=C(Cn1nnc(-c2ccccc2)n1)NC(=O)NC1CCCC1 | – | inconclusive: 31.1% | –
64 | O=C(N/N=C\c1ccc(F)cc1)c1ccc(Cn2cc(Br)c([N+](=O)[O-])n2)o1 | inconclusive: 23.1 µM [activator, single point] | – | –
65 | COc1ccc2[nH]c(=O)c(CN(C(=O)c3cccnc3)c3ccccc3)cc2c1 | inconclusive: 9.2 µM [activator, partial curve] | – | –
66 | CCOC(=O)c1c(-c2ccccc2)[nH]c2ccc(O)cc12 | inconclusive: 16.4 µM [activator, single point] | – | –
67 | COc1cc([N+](=O)[O-])ccc1NC(=O)NNC(=O)C(C)Oc1ccc(F)cc1F (stereo not given) | – | inconclusive: 1.8% | –
68 | O=C(COC(=O)c1ccc(Cl)c(S(=O)(=O)N2CCCC2)c1)NC1CCCCC1 | – | inconclusive: 4.4% | –
69 | COc1ccc(-c2ccc(NS(=O)(=O)c3cc([N+](=O)[O-])ccc3C)cc2)nn1 | – | inconclusive: 170% | –
70 | Cc1ccc(S(=O)(=O)N(C)C)cc1NC(=O)COC(=O)c1n[nH]c(=O)c2ccccc12 | – | inconclusive: -22.4% | –
71 | COC(CNC(=O)C1CCCN(S(=O)(=O)c2c(C)noc2/C=C/c2cccs2)C1)OC (stereo not given) | inconclusive: 2.31 µM [falling, partial curve, poor fit] | – | –
72 | CS/C(=N\N(C)C(N)=O)c1ccccc1 | – | inconclusive: -8.75% | –
73 | COC(=O)/C=C1/N/C(=N\c2nc(C)cc(C)n2)N(c2cccc(C)c2)C1=O | – | inconclusive: 5.71% | –
74 | COc1cc(CNCc2ccccn2)ccc1OCc1c(Cl)cccc1Cl | – | inconclusive: 2.61% | –
75 | CCCCC(=O)N1C/C=C\C(c2ccc(OC)cc2)N(Cc2ccc(F)cc2)C(=O)C1 (stereo not given) | inconclusive: 29.1 µM [falling, single point] | – | –
